This is an account of results in PMC4546667.

By UniProt entry, the sequences of proteins in these tests, tags left out. Where a name states a change or a piece, a line headed by the entry shows the natural chain unless it says otherwise.
UniProt P01009: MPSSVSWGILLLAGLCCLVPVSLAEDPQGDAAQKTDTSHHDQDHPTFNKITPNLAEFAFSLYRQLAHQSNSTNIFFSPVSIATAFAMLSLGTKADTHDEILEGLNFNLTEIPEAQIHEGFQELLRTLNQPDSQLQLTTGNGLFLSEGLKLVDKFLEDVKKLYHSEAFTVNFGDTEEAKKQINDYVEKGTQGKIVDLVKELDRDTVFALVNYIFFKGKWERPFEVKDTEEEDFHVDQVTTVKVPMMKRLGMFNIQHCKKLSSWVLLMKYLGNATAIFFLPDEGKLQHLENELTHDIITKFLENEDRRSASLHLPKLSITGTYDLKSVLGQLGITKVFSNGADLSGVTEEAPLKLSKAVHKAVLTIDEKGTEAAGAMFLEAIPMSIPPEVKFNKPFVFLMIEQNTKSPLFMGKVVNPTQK

Results are given in words; binding and its absence hold for the method and conditions named. In cells and extracts the contact can be indirect. Binding can be weak; no strength is given. Tags and fused reporters may be left off the sequences shown.

The target of the test is T1, FLAG-tagged full-length FBG1 (UniProt Q9UK22).
T1 sequence: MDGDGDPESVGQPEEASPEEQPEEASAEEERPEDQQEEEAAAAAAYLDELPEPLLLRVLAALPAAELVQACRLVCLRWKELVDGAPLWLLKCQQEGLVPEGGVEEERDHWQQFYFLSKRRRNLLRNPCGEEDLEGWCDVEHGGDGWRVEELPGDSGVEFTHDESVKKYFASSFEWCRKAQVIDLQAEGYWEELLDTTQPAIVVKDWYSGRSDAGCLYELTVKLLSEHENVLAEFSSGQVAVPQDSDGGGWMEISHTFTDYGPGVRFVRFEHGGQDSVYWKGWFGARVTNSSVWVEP
In words: co-IP; Hepa1-6 cells co-transfected with FLAG-FBG1 or FLAG-FBG1ΔN (or empty pCMV) and A1AT variants; lysed 48 h later in FLAG lysis buffer (50mM Tris pH 7.4, 150mM NaCl, 1mM EDTA, 1% Triton X-100); anti-FLAG M2 affinity gel, 4°C, 2 hours; eluted with 3xFLAG peptide; blot with anti-A1AT.

Consider “A1AT-K (the truncation mutant null Hong Kong of alpha-1 antitrypsin) (from UniProt P01009)”, for which the binding entry is given as “binds”.
